In patent US20170022503A1 one finds binding data, which are given here for two substances.

These are yes or no findings as the source states them, for the method shown. Binding calls can cover weak binding; strength is not graded here. For some of these results: Binding seen in cells or lysates may run through a third protein.

Assay [1] concerns the target T1, WARS (cytoplasmic tryptophan tRNA synthetase) (human) (UniProt P23381).
T1 sequence (looked up): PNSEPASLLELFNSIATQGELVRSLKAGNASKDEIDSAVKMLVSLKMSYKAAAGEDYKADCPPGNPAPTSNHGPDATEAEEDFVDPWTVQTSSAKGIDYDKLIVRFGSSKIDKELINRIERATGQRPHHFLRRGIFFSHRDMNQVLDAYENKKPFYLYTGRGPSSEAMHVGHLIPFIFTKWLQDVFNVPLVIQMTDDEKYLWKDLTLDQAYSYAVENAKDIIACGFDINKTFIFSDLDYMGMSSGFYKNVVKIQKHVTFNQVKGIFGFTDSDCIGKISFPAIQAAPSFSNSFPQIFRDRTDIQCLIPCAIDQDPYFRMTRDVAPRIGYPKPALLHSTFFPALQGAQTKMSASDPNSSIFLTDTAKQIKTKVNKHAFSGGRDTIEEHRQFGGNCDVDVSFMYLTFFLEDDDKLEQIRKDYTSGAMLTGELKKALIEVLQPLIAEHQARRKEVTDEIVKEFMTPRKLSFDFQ
As to the kind of experiment: flag immunoprecipitation from transfected HUVEC cells, blot for WARS.

Assay [2] deals with T1, WARS (cytoplasmic tryptophan tRNA synthetase) (human). As to the kind of experiment: co-immunoprecipitation in HUVEC cells.
For assay [3] the target is unchanged. As to the kind of experiment: co-immunoprecipitation (summary of the experiments).

In the case of “flag-tagged WARS2(L53F) mutant (human) (enzyme)”, the binding result in assay [1] is given as “binds”.
Consider “flag-tagged wild type WARS2 (human mitochondrial tryptophan tRNA synthetase) (enzyme)”, for which the binding result in assay [2], in assay [3] and in assay [1] was “binds” throughout.
